Data as given in PubChem BioAssay AID504774 (Drosophila RNAi Screening Center, 2011).
Test: 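Knock-downs that shift viability of MMS-exposed cells relative to untreated ones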 (primary screen). Cell system: Drosophila Kc167 cells. Knock-down reagent: long dsRNA against Drosophila genes, about 0.25 µg dsRNA per well. Timing: about 6 days: 3 days knock-down, then 3 days with or without MMS. Challenge: methyl methanesulphonate 0.004% (w/v) for 3 days after knock-down. Detection: 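Viability in wells given MMS, read as ATP luminescence, normalised by quantiles plate by plate and averaged across replicates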. Direction: mean viability with MMS: higher = more surviving cells after MMS.
The screen tested about 23,000 reagents; this is a random part of those that have a named target and a result. 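Values are quantile-normalised luminescence on an arbitrary scale; higher means more cells surviving MMS.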 The numbers tell different reagents against one gene apart. Further read-outs or replicates are left out here.

With CG15561, how do the results read?
mean viability with MMS: 3.37e6

With lov (jim lovell) #1, what does the deposit list?
mean viability with MMS: 3.52e6

What did the screen give for lov (jim lovell) #2?
mean viability with MMS: 3.69e6

How did the screen score CG15412?
mean viability with MMS: 3.48e6

For CG12983, what was measured?
mean viability with MMS: 3.59e6

What did the screen give for Pgant5 (Polypeptide N-Acetylgalactosaminyltransferase 5)?
mean viability with MMS: 3.53e6

With CG7094, how do the results read?
mean viability with MMS: 3.42e6

With SKIP (Shal K[+] channel interacting protein) #1, what was measured?
mean viability with MMS: 3.67e6

For SKIP (Shal K[+] channel interacting protein) #2, what was measured?
mean viability with MMS: 3.60e6

For SKIP (Shal K[+] channel interacting protein) #3, how do the results read?
mean viability with MMS: 3.68e6

With SKIP (Shal K[+] channel interacting protein) #4, what does the deposit list?
mean viability with MMS: 3.63e6

With SKIP (Shal K[+] channel interacting protein) #5, what does the deposit list?
mean viability with MMS: 3.62e6

What did the screen give for CG18081?
mean viability with MMS: 3.51e6

With numb, how do the results read?
mean viability with MMS: 3.72e6

How did the screen score CG15399?
mean viability with MMS: 3.34e6

2 of these entries, reformatted.
| Gene | dsRNA no. | mean viability with MMS |
| --- | --- | --- |
| SKIP (Shal K[+] channel interacting protein) | 3 | 3.68e6 |
| SKIP (Shal K[+] channel interacting protein) | 4 | 3.63e6 |

Continued:
With Unc-115a (Uncoordinated 115a), how do the results read?
mean viability with MMS: 3.56e6

For Snmp2 (Sensory neuron membrane protein 2) #1, what does the deposit list?
mean viability with MMS: 3.58e6

Which result is listed for Snmp2 (Sensory neuron membrane protein 2) #2?
mean viability with MMS: 3.49e6

With CG32687 #1, what was measured?
mean viability with MMS: 3.53e6

With CG32687 #2, how do the results read?
mean viability with MMS: 3.50e6

For CG42749 #1, what was measured?
mean viability with MMS: 3.60e6

Which result is listed for CG42749 #2?
mean viability with MMS: 3.48e6

For CG9588, how do the results read?
mean viability with MMS: 3.60e6

With List (Lithium-inducible SLC6 transporter), what does the deposit list?
mean viability with MMS: 3.44e6

For CG34417 #1, how do the results read?
mean viability with MMS: 3.53e6

For CG34417 #2, what does the deposit list?
mean viability with MMS: 3.61e6

What did the screen give for CG34417 #3?
mean viability with MMS: 3.53e6

For CG3597, how do the results read?
mean viability with MMS: 3.53e6

What did the screen give for CG32201?
mean viability with MMS: 3.58e6

What did the screen give for CG14401 #1?
mean viability with MMS: 3.59e6

With CG14401 #2, what does the deposit list?
mean viability with MMS: 3.24e6

Which result is listed for Lcp65Ac?
mean viability with MMS: 3.67e6

For CG5112, what does the deposit list?
mean viability with MMS: 3.78e6

How did the screen score brv3 (brivido-3)?
mean viability with MMS: 3.52e6

For CG12693, how do the results read?
mean viability with MMS: 3.69e6
